# In the supplement of paper PMC6411743:
# By UniProt entry, the sequences of proteins in these tests, tags left out. Where a name states a change or a piece, a line headed by the entry shows the natural chain unless it says otherwise.
# UniProt Q9HB07: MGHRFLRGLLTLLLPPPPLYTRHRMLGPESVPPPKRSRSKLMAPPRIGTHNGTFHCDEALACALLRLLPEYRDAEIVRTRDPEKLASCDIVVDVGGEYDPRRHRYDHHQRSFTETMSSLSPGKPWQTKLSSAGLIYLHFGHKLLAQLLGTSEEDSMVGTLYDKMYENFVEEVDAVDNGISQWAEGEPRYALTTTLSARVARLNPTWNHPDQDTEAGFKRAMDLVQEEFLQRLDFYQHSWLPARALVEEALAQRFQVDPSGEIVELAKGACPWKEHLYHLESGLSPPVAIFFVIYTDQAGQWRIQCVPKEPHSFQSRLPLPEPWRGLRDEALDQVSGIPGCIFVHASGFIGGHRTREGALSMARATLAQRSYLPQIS
# UniProt O76064: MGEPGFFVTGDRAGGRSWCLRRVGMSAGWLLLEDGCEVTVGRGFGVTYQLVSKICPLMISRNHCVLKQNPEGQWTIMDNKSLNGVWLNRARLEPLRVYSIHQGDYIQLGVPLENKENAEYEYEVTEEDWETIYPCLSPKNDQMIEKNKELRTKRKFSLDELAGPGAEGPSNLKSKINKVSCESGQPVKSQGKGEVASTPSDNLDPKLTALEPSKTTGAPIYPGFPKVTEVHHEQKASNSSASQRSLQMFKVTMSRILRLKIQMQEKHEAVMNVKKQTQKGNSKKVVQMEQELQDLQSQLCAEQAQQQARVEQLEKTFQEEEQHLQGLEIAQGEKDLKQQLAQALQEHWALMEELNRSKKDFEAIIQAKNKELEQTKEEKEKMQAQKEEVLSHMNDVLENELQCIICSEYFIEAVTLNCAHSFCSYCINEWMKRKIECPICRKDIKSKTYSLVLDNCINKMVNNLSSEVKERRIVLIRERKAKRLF
# UniProt Q9H7P6: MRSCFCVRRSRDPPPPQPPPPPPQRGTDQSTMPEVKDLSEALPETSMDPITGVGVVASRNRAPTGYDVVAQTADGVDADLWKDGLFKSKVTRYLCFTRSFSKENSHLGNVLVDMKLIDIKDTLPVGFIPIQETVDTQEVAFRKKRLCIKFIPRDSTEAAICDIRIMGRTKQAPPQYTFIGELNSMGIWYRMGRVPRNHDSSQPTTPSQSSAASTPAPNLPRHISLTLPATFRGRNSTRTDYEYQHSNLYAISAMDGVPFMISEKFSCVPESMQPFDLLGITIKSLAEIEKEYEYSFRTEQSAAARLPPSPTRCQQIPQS
# UniProt Q02338: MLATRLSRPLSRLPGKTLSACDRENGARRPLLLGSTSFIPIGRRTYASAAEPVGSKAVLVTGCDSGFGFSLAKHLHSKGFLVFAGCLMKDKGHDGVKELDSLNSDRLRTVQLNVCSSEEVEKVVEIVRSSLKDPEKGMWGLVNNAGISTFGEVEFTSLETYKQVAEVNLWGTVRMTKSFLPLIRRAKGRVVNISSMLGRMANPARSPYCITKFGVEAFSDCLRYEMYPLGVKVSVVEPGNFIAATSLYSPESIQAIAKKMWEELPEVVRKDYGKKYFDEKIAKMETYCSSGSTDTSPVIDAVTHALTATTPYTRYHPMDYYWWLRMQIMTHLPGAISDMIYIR
# UniProt P25208: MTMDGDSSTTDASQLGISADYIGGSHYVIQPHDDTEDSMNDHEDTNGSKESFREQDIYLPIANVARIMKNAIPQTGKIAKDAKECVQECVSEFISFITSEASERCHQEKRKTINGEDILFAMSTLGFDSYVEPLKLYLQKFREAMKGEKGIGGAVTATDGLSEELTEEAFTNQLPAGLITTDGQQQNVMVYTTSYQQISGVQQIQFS
# UniProt Q13510, whole entry: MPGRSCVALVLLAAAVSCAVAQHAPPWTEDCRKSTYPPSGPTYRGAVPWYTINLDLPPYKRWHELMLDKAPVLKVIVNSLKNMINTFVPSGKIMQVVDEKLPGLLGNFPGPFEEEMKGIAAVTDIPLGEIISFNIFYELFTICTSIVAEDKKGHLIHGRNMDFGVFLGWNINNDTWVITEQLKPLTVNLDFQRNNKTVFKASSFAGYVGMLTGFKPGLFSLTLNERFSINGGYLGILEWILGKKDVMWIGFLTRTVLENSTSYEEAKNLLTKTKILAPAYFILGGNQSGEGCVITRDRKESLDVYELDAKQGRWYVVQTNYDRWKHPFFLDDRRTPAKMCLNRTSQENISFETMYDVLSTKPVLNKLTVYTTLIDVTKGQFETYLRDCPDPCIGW
# UniProt P27816: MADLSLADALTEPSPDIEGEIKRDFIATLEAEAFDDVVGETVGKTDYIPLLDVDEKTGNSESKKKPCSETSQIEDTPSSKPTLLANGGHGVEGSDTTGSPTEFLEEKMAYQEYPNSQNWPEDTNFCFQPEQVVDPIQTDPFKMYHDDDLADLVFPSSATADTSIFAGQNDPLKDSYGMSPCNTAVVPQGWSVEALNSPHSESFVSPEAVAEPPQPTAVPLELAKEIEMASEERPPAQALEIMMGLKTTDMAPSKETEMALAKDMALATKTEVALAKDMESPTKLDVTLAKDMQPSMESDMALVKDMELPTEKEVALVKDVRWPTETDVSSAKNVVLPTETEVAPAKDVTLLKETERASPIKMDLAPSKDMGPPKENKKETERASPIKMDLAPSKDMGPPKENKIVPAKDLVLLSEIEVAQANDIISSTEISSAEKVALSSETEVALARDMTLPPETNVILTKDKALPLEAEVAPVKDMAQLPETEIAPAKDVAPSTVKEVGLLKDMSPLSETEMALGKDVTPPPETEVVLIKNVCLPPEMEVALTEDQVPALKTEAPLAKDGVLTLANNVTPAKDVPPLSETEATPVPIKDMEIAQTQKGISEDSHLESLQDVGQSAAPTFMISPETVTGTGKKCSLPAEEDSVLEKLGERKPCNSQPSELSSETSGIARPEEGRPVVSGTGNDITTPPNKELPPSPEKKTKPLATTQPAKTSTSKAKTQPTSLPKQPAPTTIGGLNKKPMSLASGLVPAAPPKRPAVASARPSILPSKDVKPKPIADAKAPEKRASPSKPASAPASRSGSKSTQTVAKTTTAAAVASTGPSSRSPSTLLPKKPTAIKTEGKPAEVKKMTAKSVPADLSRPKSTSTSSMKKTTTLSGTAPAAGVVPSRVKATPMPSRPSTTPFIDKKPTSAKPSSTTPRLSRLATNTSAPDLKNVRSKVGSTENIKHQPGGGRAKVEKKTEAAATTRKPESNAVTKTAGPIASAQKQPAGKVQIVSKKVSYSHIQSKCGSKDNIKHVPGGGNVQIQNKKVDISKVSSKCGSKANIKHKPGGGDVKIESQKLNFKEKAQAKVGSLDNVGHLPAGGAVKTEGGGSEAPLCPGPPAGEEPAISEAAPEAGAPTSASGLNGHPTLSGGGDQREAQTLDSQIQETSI
# UniProt Q71RG4: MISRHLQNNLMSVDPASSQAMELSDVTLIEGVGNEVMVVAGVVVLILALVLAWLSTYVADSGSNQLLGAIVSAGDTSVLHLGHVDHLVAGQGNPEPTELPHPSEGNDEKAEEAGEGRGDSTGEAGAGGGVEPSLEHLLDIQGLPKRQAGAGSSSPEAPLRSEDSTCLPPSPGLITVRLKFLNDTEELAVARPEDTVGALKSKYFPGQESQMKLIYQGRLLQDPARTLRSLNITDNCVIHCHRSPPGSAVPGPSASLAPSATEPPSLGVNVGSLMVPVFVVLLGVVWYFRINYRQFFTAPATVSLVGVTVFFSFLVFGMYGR
# UniProt Q6ZU35: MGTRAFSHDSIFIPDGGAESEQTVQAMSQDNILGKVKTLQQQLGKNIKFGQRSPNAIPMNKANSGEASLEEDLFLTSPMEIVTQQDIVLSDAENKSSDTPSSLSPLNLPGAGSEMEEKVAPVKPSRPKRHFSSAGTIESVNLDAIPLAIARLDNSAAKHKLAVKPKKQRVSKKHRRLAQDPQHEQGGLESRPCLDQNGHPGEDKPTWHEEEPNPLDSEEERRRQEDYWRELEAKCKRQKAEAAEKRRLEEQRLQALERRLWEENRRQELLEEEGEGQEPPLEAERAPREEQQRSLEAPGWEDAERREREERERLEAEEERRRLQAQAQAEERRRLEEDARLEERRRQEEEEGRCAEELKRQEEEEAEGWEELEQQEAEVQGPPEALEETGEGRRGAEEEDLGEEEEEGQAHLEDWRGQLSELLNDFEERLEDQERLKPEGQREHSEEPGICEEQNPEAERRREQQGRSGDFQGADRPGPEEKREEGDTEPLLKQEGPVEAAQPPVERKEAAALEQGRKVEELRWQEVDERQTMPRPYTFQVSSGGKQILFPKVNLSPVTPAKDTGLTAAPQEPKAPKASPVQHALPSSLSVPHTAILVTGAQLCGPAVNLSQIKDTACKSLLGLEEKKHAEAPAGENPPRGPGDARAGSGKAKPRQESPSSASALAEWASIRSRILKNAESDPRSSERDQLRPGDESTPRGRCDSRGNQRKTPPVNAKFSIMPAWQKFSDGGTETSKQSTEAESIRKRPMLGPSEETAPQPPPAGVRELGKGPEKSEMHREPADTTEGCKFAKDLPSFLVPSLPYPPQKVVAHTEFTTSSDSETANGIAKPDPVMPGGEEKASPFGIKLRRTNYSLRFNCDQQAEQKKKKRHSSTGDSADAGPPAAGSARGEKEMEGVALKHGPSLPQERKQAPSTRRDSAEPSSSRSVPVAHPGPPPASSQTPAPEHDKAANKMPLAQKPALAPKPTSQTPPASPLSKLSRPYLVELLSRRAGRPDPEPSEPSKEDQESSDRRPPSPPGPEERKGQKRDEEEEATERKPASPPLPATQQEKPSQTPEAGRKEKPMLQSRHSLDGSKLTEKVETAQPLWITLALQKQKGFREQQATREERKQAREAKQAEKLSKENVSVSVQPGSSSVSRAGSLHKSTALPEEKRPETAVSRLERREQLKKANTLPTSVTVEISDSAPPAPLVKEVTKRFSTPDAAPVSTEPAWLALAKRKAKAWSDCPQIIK
# UniProt Q9H8W3: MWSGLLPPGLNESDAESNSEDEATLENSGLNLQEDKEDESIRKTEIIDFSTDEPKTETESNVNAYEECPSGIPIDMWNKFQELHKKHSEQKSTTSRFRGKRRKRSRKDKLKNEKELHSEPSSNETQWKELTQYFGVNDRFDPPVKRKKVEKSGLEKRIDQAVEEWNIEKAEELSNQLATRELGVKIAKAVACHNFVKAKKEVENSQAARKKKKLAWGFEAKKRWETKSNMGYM
# UniProt P29692: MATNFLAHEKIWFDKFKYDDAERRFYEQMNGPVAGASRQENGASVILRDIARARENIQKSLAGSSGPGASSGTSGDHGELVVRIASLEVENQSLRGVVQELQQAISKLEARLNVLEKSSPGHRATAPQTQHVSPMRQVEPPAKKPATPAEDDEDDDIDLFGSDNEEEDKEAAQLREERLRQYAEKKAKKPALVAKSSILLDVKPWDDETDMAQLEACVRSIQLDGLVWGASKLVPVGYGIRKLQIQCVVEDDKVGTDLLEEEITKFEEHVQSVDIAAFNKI
# UniProt A2RUS2: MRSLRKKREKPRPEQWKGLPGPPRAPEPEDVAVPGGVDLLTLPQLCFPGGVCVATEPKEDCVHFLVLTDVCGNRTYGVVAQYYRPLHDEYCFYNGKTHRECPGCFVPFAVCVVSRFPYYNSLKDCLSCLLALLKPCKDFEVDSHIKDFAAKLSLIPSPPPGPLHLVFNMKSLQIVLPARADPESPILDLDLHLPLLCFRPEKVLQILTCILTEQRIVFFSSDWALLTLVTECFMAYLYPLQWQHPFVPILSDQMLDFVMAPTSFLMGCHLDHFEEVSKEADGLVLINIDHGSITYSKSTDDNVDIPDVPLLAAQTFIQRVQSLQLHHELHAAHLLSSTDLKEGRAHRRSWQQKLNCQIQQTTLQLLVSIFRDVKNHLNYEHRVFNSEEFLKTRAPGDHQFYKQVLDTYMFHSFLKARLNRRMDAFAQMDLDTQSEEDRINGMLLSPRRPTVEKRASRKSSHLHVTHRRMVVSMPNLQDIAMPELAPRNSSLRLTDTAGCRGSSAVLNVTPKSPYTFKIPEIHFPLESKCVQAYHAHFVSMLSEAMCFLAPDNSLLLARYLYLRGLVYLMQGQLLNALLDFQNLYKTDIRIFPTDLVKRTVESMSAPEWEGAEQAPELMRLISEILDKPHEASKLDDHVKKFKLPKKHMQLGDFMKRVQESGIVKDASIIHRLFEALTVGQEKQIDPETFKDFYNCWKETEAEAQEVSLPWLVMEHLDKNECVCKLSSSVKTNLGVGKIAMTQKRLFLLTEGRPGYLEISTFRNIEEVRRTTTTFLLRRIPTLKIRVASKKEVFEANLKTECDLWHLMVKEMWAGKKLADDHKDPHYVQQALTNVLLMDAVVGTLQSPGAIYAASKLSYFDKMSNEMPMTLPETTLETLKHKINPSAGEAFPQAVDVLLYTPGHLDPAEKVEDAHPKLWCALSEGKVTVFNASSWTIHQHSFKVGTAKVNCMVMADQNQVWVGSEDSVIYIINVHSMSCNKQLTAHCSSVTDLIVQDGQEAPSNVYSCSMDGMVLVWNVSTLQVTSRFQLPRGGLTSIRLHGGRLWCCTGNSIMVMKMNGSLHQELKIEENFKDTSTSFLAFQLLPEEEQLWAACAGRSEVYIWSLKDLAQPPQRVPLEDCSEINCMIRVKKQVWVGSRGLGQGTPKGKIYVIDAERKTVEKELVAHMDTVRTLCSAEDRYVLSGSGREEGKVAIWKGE
# ± gives the standard deviation of the averaged measurements. This is a selection; strong and weak results do not stand in their true shares.
# Compound: Nc1ncnc2c1ncn2[C@@H]1O[C@H](COP(=O)(O)OP(=O)(O)NP(=O)(O)O)[C@@H](O)[C@H]1O [adenylyl imidodiphosphate]
# Test: NP40-soluble protein abundance relative to vehicle (solubility fold change) (ratio); higher = more soluble protein in presence of AMP-PNP
# In short: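 Across three independent experiments, values are fold changes against the detergent-processed vehicle for each replicate, based on vsn-normalised intensities. The samples were Jurkat crude lysate treated with eight concentrations (0.1 to 10 mM) for 10 min at room temperature and then 3 min at 37 °C. Lysate was solubilised with 0.8% NP40 and benzonase, ultracentrifuged, and the supernatant analysed by TMT-labelled LC-MS/MS.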
Target,NP40-soluble protein abundance (concentration: 1mM),NP40-soluble protein abundance (concentration: 2mM),NP40-soluble protein abundance (concentration: 4mM),NP40-soluble protein abundance (concentration: 6mM),NP40-soluble protein abundance (concentration: 8mM),NP40-soluble protein abundance (concentration: 10mM)
E7ERD7 and related entries (UniProt Q9UKU0),1 ± 0.016,1.02 ± 0.038,0.996 ± 0.032,0.983 ± 0.021,1 ± 0.013,0.986 ± 0.015
F8VQQ3 and related entries (UniProt Q9HB07),1.04 ± 0.021,0.994 ± 0.027,1.03 ± 0.015,0.994 ± 0.02,1.01 ± 0.023,0.998 ± 0.05
F5GX51 and related entries (UniProt Q9Y4F9),0.989 ± 0.032,0.9663 ± 0.0022,0.982 ± 0.022,0.9632 ± 0.0049,0.941 ± 0.022,0.979 ± 0.04
E7EPM6 and related entries (UniProt P33121),0.986 ± 0.013,0.936 ± 0.088,0.99 ± 0.021,0.938 ± 0.031,0.963 ± 0.03,0.916 ± 0.027
E7EM83 and related entries (UniProt Q92932),1.03 ± 0.017,1.04 ± 0.022,0.9895 ± 0.0089,0.996 ± 0.012,1.003 ± 0.0021,0.996 ± 0.026
F8WEW6 and related entries (UniProt O76064),0.94 ± 0.015,0.983 ± 0.047,0.888 ± 0.016,0.979 ± 0.044,0.911 ± 0.029,0.941 ± 0.05
E9PF16 and related entries (UniProt Q96CM8),0.999 ± 0.037,0.948 ± 0.064,1.018 ± 0.0099,0.983 ± 0.025,1.03 ± 0.046,0.98 ± 0.05
E5RJR5 and related entries (UniProt P63208),1 ± 0.017,1.07 ± 0.026,0.984 ± 0.032,0.979 ± 0.031,0.953 ± 0.018,0.962 ± 0.029
E9PHY5 and related entries (UniProt O43491),1.016 ± 0.0069,1.04 ± 0.046,1 ± 0.014,0.9862 ± 0.0021,0.9612 ± 0.0065,0.989 ± 0.027
E7ETB3 and related entries (UniProt Q9ULA0),0.985 ± 0.032,0.937 ± 0.051,0.967 ± 0.015,0.926 ± 0.034,0.962 ± 0.044,0.914 ± 0.085
E7ES96 and related entries (UniProt P49768),0.9727 ± 0.0029,0.9587 ± 0.0011,0.961 ± 0.017,0.9741 ± 0.0013,0.967 ± 0.011,0.961 ± 0.016
F8VS36 and related entries (UniProt Q92994),1.05 ± 0.074,1.05 ± 0.049,1.02 ± 0.032,0.9827 ± 0.0086,0.998 ± 0.026,0.997 ± 0.013
E9PBL8 and related entries (UniProt Q8WTW3),0.992 ± 0.013,1.09 ± 0.054,0.99 ± 0.04,0.959 ± 0.019,0.953 ± 0.021,0.949 ± 0.039
F8W922 and related entries (UniProt Q9H7P6),1.01 ± 0.013,0.98 ± 0.022,0.989 ± 0.02,1.02 ± 0.032,1.02 ± 0.016,1.02 ± 0.013
E9PCG9 and related entries (UniProt Q02338),0.967 ± 0.018,0.949 ± 0.049,0.981 ± 0.022,0.95 ± 0.022,0.987 ± 0.0076,0.959 ± 0.015
UniProt E9PSI1,0.965 ± 0.047,0.974 ± 0.046,0.937 ± 0.036,0.946 ± 0.037,0.924 ± 0.03,0.92 ± 0.039
E9PHI4 and related entries (UniProt O94901),1.013 ± 0.0091,1.004 ± 0.0045,0.9999 ± 0.007,0.977 ± 0.027,0.96 ± 0.021,0.98 ± 0.017
F5H0R1 and related entries (UniProt Q9H6E5),0.994 ± 0.023,1.01 ± 0.039,1.02 ± 0.016,0.973 ± 0.032,0.983 ± 0.024,0.978 ± 0.025
E9PIN3 and related entries (UniProt Q9UBU9),1.01 ± 0.018,0.998 ± 0.058,1.07 ± 0.014,1.14 ± 0.046,1.18 ± 0.032,1.26 ± 0.032
E7ESY0 and related entries (UniProt P32019),0.945 ± 0.05,0.888 ± 0.037,0.97 ± 0.021,1 ± 0.084,1.03 ± 0.05,0.968 ± 0.033
E9PHH9 and related entries (UniProt Q9BUI4),0.964 ± 0.041,0.945 ± 0.016,0.961 ± 0.051,0.988 ± 0.044,0.978 ± 0.052,0.947 ± 0.039
E7ETU7 and related entries (UniProt P09001),0.971 ± 0.12,0.961 ± 0.12,0.961 ± 0.14,0.927 ± 0.24,0.938 ± 0.2,0.903 ± 0.21
F5H101 and related entries (UniProt Q76FK4),1.088 ± 0.0085,1.17 ± 0.079,1.16 ± 0.013,1.18 ± 0.055,1.17 ± 0.022,1.26 ± 0.044

Target,NP40-soluble protein abundance (concentration: 1mM),NP40-soluble protein abundance (concentration: 2mM),NP40-soluble protein abundance (concentration: 4mM),NP40-soluble protein abundance (concentration: 6mM),NP40-soluble protein abundance (concentration: 8mM),NP40-soluble protein abundance (concentration: 10mM)
E5RJV1 and related entries (UniProt P63151),0.981 ± 0.049,0.889 ± 0.035,0.934 ± 0.022,0.968 ± 0.046,0.982 ± 0.027,0.921 ± 0.027
F8VSL3 and related entries (UniProt P25208),1 ± 0.046,1.04 ± 0.058,0.971 ± 0.04,0.976 ± 0.036,0.957 ± 0.056,0.954 ± 0.039
F5GXB1 and related entries (UniProt Q9HBH0),1.01 ± 0.037,0.964 ± 0.031,1.01 ± 0.024,1.03 ± 0.048,1.05 ± 0.024,1.04 ± 0.016
E7EMM4 and related entries (UniProt Q13510),0.9804 ± 0.0097,1.01 ± 0.021,0.988 ± 0.035,1.01 ± 0.029,0.996 ± 0.033,0.999 ± 0.022
G3V167 and related entries (UniProt Q9UGN5),1.01 ± 0.042,1.02 ± 0.03,1.01 ± 0.046,1.04 ± 0.046,1.02 ± 0.056,1.09 ± 0.065
E9PLT2 and related entries (UniProt P17480),1.08 ± 0.032,1.23 ± 0.06,1.32 ± 0.055,1.47 ± 0.026,1.56 ± 0.027,1.73 ± 0.044
F5H7J9 and related entries (UniProt O75581),0.992 ± 0.032,1 ± 0.061,0.972 ± 0.021,0.971 ± 0.061,0.98 ± 0.053,0.97 ± 0.01
F8VU39 and related entries (UniProt Q9UIF9),1 ± 0.015,0.9926 ± 0.0061,1.023 ± 0.0073,1.02 ± 0.039,1.01 ± 0.014,1.03 ± 0.037
F8WCF9 and related entries (UniProt Q8N465),0.983 ± 0.03,1.01 ± 0.012,0.992 ± 0.01,1.04 ± 0.035,1.02 ± 0.032,1.03 ± 0.02
E7EVA0 and related entries (UniProt P27816),1.04 ± 0.018,1.1 ± 0.075,1.02 ± 0.05,1.04 ± 0.026,1 ± 0.044,1.03 ± 0.088
E7EQY1 and related entries (UniProt Q96C01),1.01 ± 0.036,1.11 ± 0.07,0.988 ± 0.082,0.991 ± 0.062,0.958 ± 0.062,0.968 ± 0.11
E7ESS3 and related entries (UniProt Q71RG4),1.01 ± 0.037,1.03 ± 0.045,1 ± 0.039,0.996 ± 0.012,1.01 ± 0.037,1 ± 0.032
F6U236 and related entries (UniProt Q9BY11),0.978 ± 0.036,1.03 ± 0.057,0.968 ± 0.018,1 ± 0.063,0.978 ± 0.069,0.989 ± 0.054
F5H1N7 and related entries (UniProt Q6ZU35),1.0957 ± 0.00043,1.1 ± 0.089,1.07 ± 0.063,1.1 ± 0.042,1.07 ± 0.043,1.12 ± 0.036
F2Z2Y3 and related entries (UniProt Q9H8W3),1.039 ± 0.0016,1.02 ± 0.0023,1.023 ± 0.0026,1.04 ± 0.062,1.01 ± 0.012,1.03 ± 0.026
E9PRY8 and related entries (UniProt P29692),0.983 ± 0.027,1.02 ± 0.017,0.961 ± 0.014,0.934 ± 0.059,0.932 ± 0.024,0.896 ± 0.041
E9PLE4 and related entries (UniProt Q9BVG9),1.02 ± 0.02,1.04 ± 0.054,1.01 ± 0.045,1.03 ± 0.023,1.03 ± 0.013,1.03 ± 0.012
F2Z2U4 and related entries (UniProt Q9Y4A5),0.998 ± 0.036,0.989 ± 0.082,1.01 ± 0.015,0.994 ± 0.03,1.03 ± 0.036,1 ± 0.055
F5H226 and related entries (UniProt P08397),1.03 ± 0.023,0.987 ± 0.046,1 ± 0.032,0.981 ± 0.02,1.02 ± 0.014,0.98 ± 0.062
E9PM92 and related entries (UniProt O00193+E9PM92),1.13 ± 0.04,1.18 ± 0.07,1.07 ± 0.037,1.03 ± 0.029,0.983 ± 0.03,1.02 ± 0.1
E9PF32 and related entries (UniProt A2RUS2),0.955 ± 0.057,0.946 ± 0.02,0.949 ± 0.042,0.929 ± 0.048,0.944 ± 0.034,0.903 ± 0.047
F5H7T0 and related entries (UniProt Q96S38),0.999 ± 0.0077,1.02 ± 0.028,1.01 ± 0.034,0.9695 ± 0.004,0.991 ± 0.023,0.965 ± 0.046
F8W9X7 and related entries (UniProt Q567U6),0.966 ± 0.022,0.991 ± 0.051,0.957 ± 0.028,0.961 ± 0.024,0.952 ± 0.037,0.99 ± 0.047

# Only NP40-soluble protein abundance (concentration: 10mM), NP40-soluble protein abundance (concentration: 2mM) and NP40-soluble protein abundance (concentration: 6mM), for some of the entries so far:
Target	NP40-soluble protein abundance (concentration: 10mM)	NP40-soluble protein abundance (concentration: 2mM)	NP40-soluble protein abundance (concentration: 6mM)
F5H1N7 and related entries (UniProt Q6ZU35)	1.12 ± 0.036	1.1 ± 0.089	1.1 ± 0.042
F2Z2Y3 and related entries (UniProt Q9H8W3)	1.03 ± 0.026	1.02 ± 0.0023	1.04 ± 0.062
